Reference: PMC7819943, “Rice protein-binding microarrays: a tool to detect cis-acting elements near promoter regions in rice”
The other results are listed elsewhere or left out.

The chains behind the UniProt entries cited, without tags or fusion partners.
UniProt Q0JBA9, entry or part of it: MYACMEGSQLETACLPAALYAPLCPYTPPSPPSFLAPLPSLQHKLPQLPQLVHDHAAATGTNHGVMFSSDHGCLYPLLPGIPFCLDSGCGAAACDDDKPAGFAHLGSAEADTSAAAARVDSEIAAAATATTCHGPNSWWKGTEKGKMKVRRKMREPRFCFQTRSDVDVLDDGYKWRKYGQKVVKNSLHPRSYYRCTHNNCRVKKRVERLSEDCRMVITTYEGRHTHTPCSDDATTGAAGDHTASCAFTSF

These sequences were tested against OsWRKY34 (Oryza sativa, UniProt Q0JBA9 1-250) (assay: protein-binding microarray (RPBM); PBS, 2% BSA, 51.3 ng/ul salmon testes DNA, 50 uM zinc acetate, 200 nM TF, 25 C, 1 h; high values mean tight binding). Conditions: protein: recombinant; tags: N-terminal polyhistidine and DsRed monomer fusion (pET32a); label: CyDye5-dUTP incorporated in the synthesized complementary strand; 3' TTTTT single-stranded linker to array surface; dsDNA, one strand shown.
Method in brief: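 The binding signal is fluorescence intensity per feature, in arbitrary units, read on an Axon 4000B scanner. Polyhistidine- and DsRed-tagged transcription factors (N-terminal fusions) from E. coli BL21-CodonPlus were purified on Ni–NTA and applied at 200 nM for 1 h at 25 °C to a double-stranded, BSA-blocked custom Agilent array in buffer with 50 µM zinc acetate.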
“TTTCCGATTATTTTATTTATTTTCCTTCCATATAAGCCTTCGGAGTCACCTAGTGCAG” was tested, and the binding signal was 9000 fluorescence intensity (a.u.). For “TCTGCCATTCACTTCGGGTTGCTGCCCTTTTTTTGTTCTTCGGAGTCACCTAGTGCAG”, the binding signal was 12100 fluorescence intensity (a.u.). For “GTGCTCCGCGCCGTCGCCTCCGCGCCCCTGCCAGCTGCTCCGGAGTCACCTAGTGCAG”, the binding signal was 9810 fluorescence intensity (a.u.). “TAACTTCGTCTGCTGCTCATTTTTCACCATCAAATTCCTACGGAGTCACCTAGTGCAG” was tested, and the binding signal was 10800 fluorescence intensity (a.u.). With “ATCTCGTTTAGTTTGGACTAGTCCACTTAAATTACTCAAACGGAGTCACCTAGTGCAG” the binding signal was 8660 fluorescence intensity (a.u.). With “AGTCCATTTAATTTCTAGTTTGTTATTGATTTCTATATAACGGAGTCACCTAGTGCAG” the binding signal was 9110 fluorescence intensity (a.u.). For “GCCGACCGCCACCGCCCCGCGCCGCCTTCCCCGCCTCCGCCGGAGTCACCTAGTGCAG”, the binding signal was 8420 fluorescence intensity (a.u.). With “CCACCGGCCGCCTCGTCCTCTCGCCATGGCCGCACCATCCCGGAGTCACCTAGTGCAG” the binding signal was 8600 fluorescence intensity (a.u.). “TGCTCTACTCTCGATTTCCATTGTCAAAGGTAAGGTCACTCGGAGTCACCTAGTGCAG” was tested, and the binding signal was 8770 fluorescence intensity (a.u.). In the case of “GTCGTTTGATGATAATGCCCACTCTATTACGTGGCCTGAACGGAGTCACCTAGTGCAG”, the binding signal is reported as 8500 fluorescence intensity (a.u.). In the case of “AAAATCTGGGCTGCCATATCTCATTCAAGCTTGACCGTTACGGAGTCACCTAGTGCAG”, the binding signal is reported as 8960 fluorescence intensity (a.u.). For “TCCAACGAAGCCCAGCAGAACTTTTGTCCGTTTTCTTTTTCGGAGTCACCTAGTGCAG”, the binding signal was 11400 fluorescence intensity (a.u.). In the case of “GTTCGTGCGTTTTCTTGGATGAGATTTGGGGTGACGTCCTCGGAGTCACCTAGTGCAG”, the binding signal is reported as 9540 fluorescence intensity (a.u.). In the case of “CTCCCGCCGCGACTCGCCGCCGCGCGCGGCATCTCCGGCCCGGAGTCACCTAGTGCAG”, the binding signal is reported as 8820 fluorescence intensity (a.u.). “CATTTTTCTCCGGGACCTGCCAATTTCCAGCGAGCAAGTTCGGAGTCACCTAGTGCAG” was tested, and the binding signal was 8780 fluorescence intensity (a.u.). With “AATCCAGCGGAAAGCAACCCCGTCCGCGCGCTACGCCACCCGGAGTCACCTAGTGCAG” the binding signal was 8380 fluorescence intensity (a.u.). With “GAAGAAGCATGGCCAGCTTCACATATTGACCGCACATACACGGAGTCACCTAGTGCAG” the binding signal was 8460 fluorescence intensity (a.u.). In the case of “GCATTTCTTTTTTCCCATGGTAGGATACTTCCACCCAGCTCGGAGTCACCTAGTGCAG”, the binding signal is reported as 10100 fluorescence intensity (a.u.). For “TCTCCTTGATTCCCGCTTCTCACACGCATTATTTGTTTCACGGAGTCACCTAGTGCAG”, the binding signal was 18500 fluorescence intensity (a.u.). With “CTCTCATTGTATCTATCATAAATTTCTTACTGTACTTGTCCGGAGTCACCTAGTGCAG” the binding signal was 8570 fluorescence intensity (a.u.). With “TTCCCTTGGCCATCGTCTCTCTCTTGCCTTCTTCTTCTCACGGAGTCACCTAGTGCAG” the binding signal was 8370 fluorescence intensity (a.u.). With “TTCTGCCGCCGTCGGTTTCGGCTTGAGCTCTGGGTTTATTCGGAGTCACCTAGTGCAG” the binding signal was 9360 fluorescence intensity (a.u.). With “TTCAGGTGATCTTCCCATCATTATTTCTTGTGCTAGTCTTCGGAGTCACCTAGTGCAG” the binding signal was 12100 fluorescence intensity (a.u.). “CTCTCCTCCTTTCTTCTCCAAGTCAACAGTTCCTACGCTACGGAGTCACCTAGTGCAG” was tested, and the binding signal was 9050 fluorescence intensity (a.u.). With “GCTCTCCGCCGCCGCCGCCGCCGTCTCCAACTTCAAGATGCGGAGTCACCTAGTGCAG” the binding signal was 10100 fluorescence intensity (a.u.). With “CTTGCCACGTTAAGACCCAAGGCTACGTTACCTGCACTTTCGGAGTCACCTAGTGCAG” the binding signal was 8580 fluorescence intensity (a.u.). With “ATTTTCCGTCCCCTTACCACGCTATTTCTCACGATTAATACGGAGTCACCTAGTGCAG” the binding signal was 8340 fluorescence intensity (a.u.). With “ATTGATTTTTCCTTTTATGACGGCTCCTTTCCTTGGAATCCGGAGTCACCTAGTGCAG” the binding signal was 9280 fluorescence intensity (a.u.). With “ACATGTTACTCCGCAGAAGTAGAGGCGTTTTGTTTTTGACCGGAGTCACCTAGTGCAG” the binding signal was 9420 fluorescence intensity (a.u.). “ATGGTTGTGATTTGTTTAGGTCGAGTAAAGGAGGAATTCCCGGAGTCACCTAGTGCAG” was tested, and the binding signal was 8840 fluorescence intensity (a.u.). For “TCAATTTATCTGGCATCTGGCGCTTTTTACTCATTTAAGACGGAGTCACCTAGTGCAG”, the binding signal was 9630 fluorescence intensity (a.u.). For “CCACTTAGATGCCCACGCGTTTATTAATCGCCACCACCTTCGGAGTCACCTAGTGCAG”, the binding signal was 8680 fluorescence intensity (a.u.). With “TGCTCCATGTATGTGTCTAAATATTTGATGTGATGTTTTTCGGAGTCACCTAGTGCAG” the binding signal was 10200 fluorescence intensity (a.u.). In the case of “CATCCAGGCTCCGCCGCTGCCACCGCTACCCTTTTTACTACGGAGTCACCTAGTGCAG”, the binding signal is reported as 12400 fluorescence intensity (a.u.). For “AAAAGCAAAAGCAAAAGAAACACGTCCTTATTCCTCTCTCCGGAGTCACCTAGTGCAG”, the binding signal was 8210 fluorescence intensity (a.u.). In the case of “TTTCATGCGTGACTTATCTTTTTAATTTTTTTTATATTTTCGGAGTCACCTAGTGCAG”, the binding signal is reported as 8150 fluorescence intensity (a.u.). In the case of “TGGTGTTGTGTATAATATTAGTAGGAGGGGAGCCTTGGGGCGGAGTCACCTAGTGCAG”, the binding signal is reported as 10900 fluorescence intensity (a.u.). For “CCTGTCTGCTTGGCCTCACGGTGTCTCTGCGCGAATCAATCGGAGTCACCTAGTGCAG”, the binding signal was 11400 fluorescence intensity (a.u.). With “ACGCCCTCGCGCACGACGTCGCCGCTCACGTCAACGAGCTCGGAGTCACCTAGTGCAG” the binding signal was 8500 fluorescence intensity (a.u.). “AGTATTAAGATAGCTGCTCGGGTTTTTGGTCAACAATTCACGGAGTCACCTAGTGCAG” was tested, and the binding signal was 10600 fluorescence intensity (a.u.). “TTGACCTCGAGTCCTGCTTGGCTTTTTGTGGGCGACACCGCGGAGTCACCTAGTGCAG” was tested, and the binding signal was 9720 fluorescence intensity (a.u.). For “AGTTAAAACCGCTACTCCACTCCTCCCATTGCATAATTTTCGGAGTCACCTAGTGCAG”, the binding signal was 9400 fluorescence intensity (a.u.).
